Assay results taken from paper PMC7862700.
Only a part is listed here, and it is no random draw. For some assays here: At the low end of the ranking the order means little. The list shows a part of the results. For some assays here: Construct or isoform of the protein are uncertain.

Key:
Assay in all cases: DAPPL (digital affinity profiling via proximity ligation, sequencing)
Settings in all cases: 10 mM Tris-HCl pH 7.5, 50 mM NaCl, 1 mM DTT, 4% glycerol, room temperature, 30 min; GST-TFs on glutathione beads, 16-mer random dsDNA library, 0.1% …; high values mean tight binding; double strand, one strand shown; scale: fold enrichment (6-mer frequency, TF over GST control)
GABPA = target: T1, GABPA (UniProt Q06546)
T1 sequence: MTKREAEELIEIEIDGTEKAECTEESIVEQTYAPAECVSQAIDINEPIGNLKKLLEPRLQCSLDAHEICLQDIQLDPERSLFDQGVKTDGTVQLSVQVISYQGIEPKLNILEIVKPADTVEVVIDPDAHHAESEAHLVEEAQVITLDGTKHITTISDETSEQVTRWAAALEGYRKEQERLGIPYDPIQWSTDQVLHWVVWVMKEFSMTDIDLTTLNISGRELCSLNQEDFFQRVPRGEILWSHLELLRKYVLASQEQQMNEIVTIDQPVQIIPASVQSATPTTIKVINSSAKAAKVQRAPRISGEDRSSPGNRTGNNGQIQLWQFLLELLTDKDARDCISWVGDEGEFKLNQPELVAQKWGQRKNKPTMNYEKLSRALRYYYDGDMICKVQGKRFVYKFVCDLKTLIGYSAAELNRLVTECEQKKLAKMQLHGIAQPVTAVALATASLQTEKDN

ETS1 = target: T2, ETS1 (UniProt P14921)
T2 sequence: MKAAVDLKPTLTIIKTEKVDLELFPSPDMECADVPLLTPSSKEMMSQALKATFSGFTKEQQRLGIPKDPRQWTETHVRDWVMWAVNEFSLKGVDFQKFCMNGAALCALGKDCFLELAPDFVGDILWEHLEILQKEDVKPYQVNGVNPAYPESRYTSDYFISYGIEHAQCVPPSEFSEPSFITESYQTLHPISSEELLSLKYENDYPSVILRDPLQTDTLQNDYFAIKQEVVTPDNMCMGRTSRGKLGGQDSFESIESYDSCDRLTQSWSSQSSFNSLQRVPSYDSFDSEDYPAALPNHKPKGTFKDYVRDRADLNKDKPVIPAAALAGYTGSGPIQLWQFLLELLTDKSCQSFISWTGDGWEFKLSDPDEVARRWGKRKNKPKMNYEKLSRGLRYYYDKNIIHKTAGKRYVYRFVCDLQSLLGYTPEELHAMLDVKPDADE

SPDEF = target: T3, SPDEF (UniProt O95238)
T3 sequence: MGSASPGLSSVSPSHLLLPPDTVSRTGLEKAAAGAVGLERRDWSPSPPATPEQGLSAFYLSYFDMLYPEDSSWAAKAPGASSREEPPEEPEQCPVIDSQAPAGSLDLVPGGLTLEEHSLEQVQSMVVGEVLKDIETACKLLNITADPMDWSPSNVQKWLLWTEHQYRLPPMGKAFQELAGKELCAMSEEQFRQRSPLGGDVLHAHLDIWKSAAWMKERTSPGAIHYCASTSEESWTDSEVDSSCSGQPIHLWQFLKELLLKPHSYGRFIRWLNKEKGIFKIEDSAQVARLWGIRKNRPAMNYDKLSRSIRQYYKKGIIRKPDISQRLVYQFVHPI

| Sequence | binding signal (GABPA) | binding signal (ETS1) | binding signal (SPDEF) |
| --- | --- | --- | --- |
| TATAGC | 1.26 | 1.17 |  |
| CGAAAT | 0.98 | 1.12 |  |
| GATACC | 0.92 | 0.869 |  |
| AAGAAG | 1.01 | 1.08 |  |
| TCGAAG | 0.938 | 0.927 | 0.874 |
| GCCGCA | 1.02 | 0.963 | 0.905 |
